# In PubChem BioAssay AID2685 (National Center for Advancing Translational Sciences (NCATS), 2010):
# This is one part of the list. These are further read-outs of the screen, such as a control signal, another cell line or another target. No call is given for them. Compounds called inactive in the main read-out are mostly missing here. Potencies come from curve fits of mixed quality, noted in brackets.
# Test: qHTS Assay for Lipid Storage Modulators in Drosophila S3 Cells;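 as to cell number change: cells counted by Cell Tracker Red CMTPX staining in the red channel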
# Settings: BODIPY lipid droplet fluorescence, 18-24 h; for cell number change: measured here: cell count max response, cells fed with added oleic acid
# Method in brief: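 Drosophila S3 cells loaded with oleic acid (400 uM, as added) and compounds at several concentrations; lipid droplets imaged by 488-nm laser-scanning cytometry, 500–530 nm intensity and object ratio to cell channel. Percent activity normalized to 20 uM Triacsin C.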
# [1] = measured here: cell number channel AC50, cells fed with added oleic acid
# [2] = measured here: lipid fluorescence (Fed channel) AC50, cells fed with added oleic acid
Compound,cell number change,AC50 [1],AC50 [2]
O=C(N/N=C/c1cccc(O)c1)C(=O)N1CCCCCC1,38.9%,"29.1 µM [rising, single point]",
COc1ccc(S(=O)(=O)N2CCCCC2)cc1NC(=O)CSc1nnc(C2CC2)n1C,-5.51%,,"0.164 µM [rising, full curve, poor fit]"
O=S(=O)(N/N=C\c1c(F)cccc1Cl)c1ccc(Cl)cc1,-11%,,"23.1 µM [falling, partial curve]"
COc1cc(NC(=O)c2ccc(Cl)cc2)c2ncccc2c1,-26.8%,,"23.1 µM [falling, partial curve]"
Cc1sc2ncnc(NCC(c3ccccc3)N(C)C)c2c1C (stereo not drawn),-28.6%,,
CCOC(=O)C(C)(C)Sc1nc2c(cnn2-c2ccc(C)cc2)c(=O)[nH]1,-34.9%,"29.1 µM [falling, single point]","29.1 µM [falling, single point]"
CC(C)c1nnc(NC(=O)CCC(=O)N2CCN(Cc3ccc(F)cc3)CC2)s1,-7.67%,,
CC1CCN(Cc2c(C(=O)N/N=C/c3cccc(Cl)c3)nnn2-c2nonc2N)CC1,33%,"16.4 µM [rising, single point]",
COc1ccc2c(c1OC)C(=O)OC2Nc1nc(-c2cc3cc(Br)ccc3oc2=O)cs1 (stereo not drawn),7.76%,,"0.291 µM [rising, full curve]"
COC(=O)C1=C(C)NC(C)=C(C(=O)OC)C1C(=O)OCC(=O)Nc1ccc(C(C)=O)cc1,,,"35.5 µM [rising, single point]"
CC(C)C(=O)Nc1nnc(S(=O)(=O)N2CCCCCC2)s1,13.8%,,"29.1 µM [rising, single point]"
COc1ccccc1N1CCN(C(=O)c2cc(-c3ccc(Br)cc3)on2)CC1,-0.575%,,
Cc1nonc1C1CCCN1C(=O)c1cc(COc2ccc(F)cc2F)on1 (stereo not drawn),19.8%,,"2.59 µM [rising, full curve, poor fit]"
COc1ccc(Cl)cc1NC(=O)CN(C)C(=O)CCC(=O)c1cc(C)sc1C,,"2.31 µM [rising, partial curve]",
NS(=O)(=O)c1cc(C2(O)NC(=O)c3ccccc32)ccc1Cl (stereo not drawn),-14.7%,,"2.31 µM [falling, partial curve, poor fit]"
COc1ccc(NC(=O)CSc2nnc(-c3cc(C)[nH]n3)n2N)cc1,21%,,"29.1 µM [rising, single point]"
Nc1cc(N)nc(SCCN2CCCCC2)n1,,,"0.0058 µM [falling, full curve, poor fit]"

# An excerpt from above in order of length of the SMILES, high to low.
Compound,cell number change,AC50 [1],AC50 [2]
CC(C)c1nnc(NC(=O)CCC(=O)N2CCN(Cc3ccc(F)cc3)CC2)s1,-7.67%,,
COc1cc(NC(=O)c2ccc(Cl)cc2)c2ncccc2c1,-26.8%,,"23.1 µM [falling, partial curve]"
Nc1cc(N)nc(SCCN2CCCCC2)n1,,,"0.0058 µM [falling, full curve, poor fit]"

# (further entries)

Compound,cell number change,AC50 [1],AC50 [2]
Cc1ccccc1OCCOC(=O)c1cc(S(=O)(=O)N2CCCCC2)ccc1N1CCOCC1,-34%,"32.6 µM [falling, single point]","29.1 µM [falling, single point]"
CCOC(=O)CC(=O)CSc1nc2c(cc1C#N)CCCCC2,-0.814%,,"0.92 µM [rising, full curve, poor fit]"
CN(Cc1cccc(F)c1)C(=O)c1ccc(S(=O)(=O)C(F)F)cc1,-12.8%,,
O=C(Cn1cnc2c(cnn2-c2ccccc2Cl)c1=O)N1CCc2ccccc21,-20.5%,,"29.1 µM [falling, single point]"
O=C(CCSc1ccccc1)NCCN1CCOCC1,4.86%,,"9.2 µM [rising, single point]"
Cc1cc(C(=O)N/N=C/c2ccco2)n[nH]1,7.22%,,"0.326 µM [rising, single point]"
O=C(CC1(C(F)(F)F)OCCO1)Nc1ccc2c(c1)OCO2,3.73%,,
Cc1cc(C(=O)OCC(=O)NC2CC2)ccc1[N+](=O)[O-],-20.3%,,"3.66 µM [rising, full curve, poor fit]"
O=C(CN1C(=O)c2ccccc2S1(=O)=O)Nc1ncccn1,5.85%,,"20.6 µM [falling, partial curve, poor fit]"
O=C(COC(=O)C1C2CC3OC(=O)C1C3C2)Nc1ccccc1 (stereo not drawn),262%,,
CC(C)(C)n1nc2c(c1NC(=O)Cc1cccc3ccccc13)CS(=O)(=O)C2,-41%,"14.6 µM [falling, partial curve, poor fit]","4.11 µM [falling, full curve]"
CC(C)Sc1nc(-c2cccs2)nc2c1c(=O)n(C)c(=O)n2C,21.2%,,
Cc1ccc(OCC(=O)N(C)CC(=O)Nc2ccccc2Cl)c([N+](=O)[O-])n1,-2%,,
CCN(C(=O)COC(=O)C1CCN(S(=O)(=O)c2ccc3c(c2)OCCO3)CC1)C1CCCCC1,24.4%,,"29.1 µM [rising, single point]"
Cc1cc(C)nc(Nc2cccc(C(F)(F)F)c2)n1,0.549%,,"5.8 µM [rising, full curve]"
Cc1cc(C)cc(-n2c3nc4ccccc4nc3c3c(=O)n(Cc4ccco4)cnc32)c1,-93.6%,"16.4 µM [falling, partial curve]",
